Results are given in words; binding and its absence hold for the method and conditions named. Binding seen in cells or lysates may run through a third protein. Some binding calls cover weakened binding; strength is not graded here.
B1: PDH E1 component subunit alpha (PDHA1) (protein, UniProt P35486 30-390)
chain: FANDATFEIKKCDLHRLEEGPPVTTVLTREDGLKYYRMMQTVRRMELKADQLYKQKIIRGFCHLCDGQEACCVGLEAGINPTDHLITAYRAHGFTFTRGLPVRAILAELTGRRGGCAKGKGGSMHMYAKNFYGGNGIVGAQVPLGAGIALACKYNGKDEVCLTLYGDGAANQGQIFEAYNMAALWKLPCIFICENNRYGMGTSVERAAASTDYYKRGDFIPGLRVDGMDILCVREATKFAAAYCRSGKGPILMELQTYRYHGHSMSDPGVSYRTREEIQEVRSKSDPIMLLKDRMVNSNLASVEELKEIDVEVRKEIEDAAQFATADPEPPLEELGYHIYSSDPPFEVRGANQWIKFKSVS
B2: pBIFC-VN173-PDHA1 (protein, UniProt P35486 30-390)
chain: B1 chain

Amino acid sequences for entries named in this document (tags omitted). A change or cut given only in a name is not applied to a line headed by its entry. Residues count along the entry.
UniProt Q8K2C6, residues 37-310: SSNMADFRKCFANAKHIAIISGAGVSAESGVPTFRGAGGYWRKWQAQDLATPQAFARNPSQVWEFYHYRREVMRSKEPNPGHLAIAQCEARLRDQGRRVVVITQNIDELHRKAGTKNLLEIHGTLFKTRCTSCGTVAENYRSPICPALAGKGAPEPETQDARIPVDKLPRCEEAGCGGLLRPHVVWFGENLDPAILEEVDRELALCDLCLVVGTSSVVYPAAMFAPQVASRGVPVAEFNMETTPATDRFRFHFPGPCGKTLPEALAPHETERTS

Legend:
[1] = target: mouse SIRT5, lentiviral overexpression (SIRT5-OE) (mouse) (UniProt Q8K2C6); assay: co-IP; Dynabeads protein A/G with 10 ug anti-SIRT5 or anti-PDHA1 antibody; 250 ug cytoplasmic proteins of control and SIRT5-OE J774A.1 cells, overnight at 4 C; acid elution; blots with anti-PDHA1 and anti-SIRT5
[2] = target: sirtuin SIRT5 (mouse (endogenous in J774A.1)) (UniProt Q8K2C6); assay: as above
pBIFC-VC155-SIRT5 = pBIFC-VC155-SIRT5 (UniProt Q8K2C6); assay: split reporter; BiFC: pBIFC-VN173-PDHA1 and pBIFC-VC155-SIRT5 transfected alone or together into 293 T cells, 48 h; confocal fluorescence images

Row | Binder | binding [1] | binding [2] | binding (pBIFC-VC155-SIRT5)
1 | B1 | binds | binds | –
2 | B2 | – | – | binds

— paper PMC9801296
